The series in a line: Fmoc solid-phase peptide synthesis; Fmoc-Rink amide resin. The settings on record: whole synthesis.

For TAMRA-D-R8, under “HPLC and MS”, the “final HPLC purity” value is given as 99%. Under “overall”, this substance gave an isolated yield of 17%.

For the origin of these results see paper PMC8942850 (Nature, 2022).
